Measurements reported in patent publication US20220169682A1 (PARIS SCIENCES ET LETTRES, published 2022).
Results are given in words; binding and its absence hold for the method and conditions named. Some results given as binding are weak or reduced against the parent protein; the word gives no strength. Tags and fused reporters may be left off the sequences shown.

Target: T1, NFAST (FAST fragment 1-114), recombinantly purified, His-tagged (Halorhodospira halophila (Ectothiorhodospira halophila)) (UniProt P16113)
T1 sequence: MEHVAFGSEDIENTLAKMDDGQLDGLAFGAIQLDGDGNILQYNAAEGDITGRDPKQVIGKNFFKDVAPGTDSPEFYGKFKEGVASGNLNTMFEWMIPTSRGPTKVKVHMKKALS
Test: fluorescence titration in presence of fluorogen

B1: CFAST11 synthetic peptide (FAST fragment 115-125) (peptide)
peptide: GDSYWVFVKRV
modifications: acetylated at the N terminus and amidated at the C terminus
B1 was tested, and the binding was “binds”.
